Test results as given in the supplement of paper PMC6078165.
Values are relative to the signal before dosing, not to a vehicle control; the signal also falls without drug.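 Fibroblast labels name human fibroblasts: mostly primary ones from tissues such as uterus (C12385, HUF), lung (H6013), bone (Hs27A), adrenal (HADF) and skin (WS1), plus mammary HMF and breast cancer-associated Hs343T. The cancer cells are basal-like or mesenchymal-like triple-negative breast cancer lines. The paper calls a changed response a hit when it shifts by more than 3x the replicate standard deviation. The tissue of the other fibroblasts is not given here.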

Tested on: MDAMB468
Experiment: relative JC-1 red fluorescence (viability) vs pre-drug, coculture with fibroblast (fraction); higher = more viable cancer cells
Method: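 JC-1 labelled TNBC cells cocultured 1:1 (1,500 cells each) with CellTrace Violet stained primary or stromal fibroblasts in 384-well plates in FluoroBrite medium, treated with one of 42 anticancer drugs at 0.1, 1, 10 or 100 uM. JC-1 red fluorescence (mitochondrial integrity in cancer cells only) was read by plate reader every 8 h for 72 h. Values are normalised to each well's pre-drug value. The stock of one drug was tenfold lower, so its dose labels may be too high.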

CC(C)C[C@H](NC(=O)[C@@H](COC(C)(C)C)NC(=O)[C@H](Cc1ccc(O)cc1)NC(=O)[C@H](CO)NC(=O)[C@H](Cc1c[nH]c2ccccc12)NC(=O)[C@H](Cc1cnc[nH]1)NC(=O)[C@@H]1CCC(=O)N1)C(=O)N[C@@H](CCCNC(=N)N)C(=O)N1CCC[C@H]1C(=O)NNC(N)=O [Goserelin]
relative JC-1 red fluorescence
Settings	8 h	16 h	24 h	32 h	40 h	48 h	56 h	64 h	72 h
10 µM, coculture fibroblast: C12385	0.8936	0.813	0.764	0.7	0.65	0.623	0.579	0.54	0.515
10 µM, coculture fibroblast: H6013	0.894	0.852	0.825	0.81	0.781	0.799	0.78	0.767	0.726
10 µM, coculture fibroblast: H6019	0.7985	0.787	0.762	0.719	0.673	0.658	0.612	0.572	0.544
10 µM, coculture fibroblast: H6076	0.9196	0.963	0.894	0.89287	0.824	0.8244	0.7819	0.77	0.804
10 µM, coculture fibroblast: H6231	0.8589	0.935	0.81903	0.8239	0.764	0.744	0.687	0.664	0.662
10 µM, coculture fibroblast: HADF	0.9027	0.844	0.799	0.788	0.736	0.721	0.676	0.655	0.611
10 µM, coculture fibroblast: HCFa	0.8531	0.837	0.786	0.748	0.687	0.679	0.62	0.582	0.548
10 µM, coculture fibroblast: HCPF	0.9	0.893	0.8713	0.8825	0.81	0.7839	0.733	0.719	0.702
10 µM, coculture fibroblast: HHSteC	0.879	0.861	0.818	0.7819	0.744	0.74	0.67	0.646	0.596
10 µM, coculture fibroblast: HMF	0.845	0.9357	0.8744	0.8642	0.7882	0.7722	0.7199	0.7082	0.6859
10 µM, coculture fibroblast: HPFa	0.9413	0.899	0.869	0.816	0.789	0.794	0.721	0.693	0.61
10 µM, coculture fibroblast: HUF	0.917	0.821	0.781	0.716	0.661	0.636	0.593	0.569	0.553
10 µM, coculture fibroblast: Hs5	0.853	0.9426	0.895	0.8627	0.79	0.761	0.729	0.692	0.707
10 µM, coculture fibroblast: Hs27A	0.84	0.812	0.766	0.769	0.711	0.704	0.653	0.619	0.576
10 µM, coculture fibroblast: Hs343T	0.89722	0.954	0.899	0.876	0.806	0.779	0.725	0.699	0.669
10 µM, coculture fibroblast: WS1	0.8544	0.7793	0.729	0.66665	0.615	0.582	0.544	0.504	0.487
100 µM, coculture fibroblast: C12385	0.8916	0.849	0.823	0.761	0.7195	0.697	0.65428	0.622	0.606
100 µM, coculture fibroblast: H6013	0.8991	0.856	0.808	0.787	0.765	0.762	0.733	0.725	0.667
100 µM, coculture fibroblast: H6019	0.842	0.8287	0.817	0.766	0.716	0.69	0.636	0.601	0.577
100 µM, coculture fibroblast: H6076	0.946	0.961	0.94	0.969	0.91	0.9192	0.895	0.889	0.929
100 µM, coculture fibroblast: H6231	0.8504	0.907	0.849	0.852	0.784	0.77	0.728	0.696	0.684
100 µM, coculture fibroblast: HADF	0.924	0.852	0.834	0.824	0.78	0.779	0.732	0.72	0.674
100 µM, coculture fibroblast: HCFa	0.889	0.8527	0.8032	0.7837	0.7234	0.722	0.6654	0.636	0.585
100 µM, coculture fibroblast: HCPF	0.931	0.982	0.951	0.946	0.861	0.84	0.793	0.784	0.779
100 µM, coculture fibroblast: HHSteC	0.911	0.884	0.8529	0.8295	0.788	0.784	0.724	0.697	0.65
100 µM, coculture fibroblast: HMF	0.857	0.952	0.895	0.876	0.799	0.7845	0.7294	0.7082	0.6957
100 µM, coculture fibroblast: HPFa	0.955	0.929	0.917	0.866	0.832	0.83	0.755	0.721	0.639
100 µM, coculture fibroblast: HUF	0.911	0.859	0.8132	0.745	0.703	0.678	0.637	0.61	0.587
100 µM, coculture fibroblast: Hs5	0.798	0.9333	0.9041	0.884	0.808	0.781	0.742	0.712	0.733
100 µM, coculture fibroblast: Hs27A	0.878	0.814	0.797	0.801	0.743	0.736	0.696	0.661	0.612
100 µM, coculture fibroblast: Hs343T	0.921	0.966	0.944	0.942	0.86	0.841	0.78	0.762	0.744
100 µM, coculture fibroblast: WS1	0.912	0.826	0.7912	0.723	0.685	0.654	0.615	0.573	0.553
